Laboratory results from article PMC11379074.
No constants are given. Whether binding was seen depends on the method and setting. In cells and extracts the contact can be indirect. A yes stands for co-enrichment or nearness to the bait. Other partners may have been found.

The chains behind the UniProt entries cited, without tags or fusion partners. Where a name states a change or a piece, a line headed by the entry shows the natural chain unless it says otherwise.
UniProt Q14554: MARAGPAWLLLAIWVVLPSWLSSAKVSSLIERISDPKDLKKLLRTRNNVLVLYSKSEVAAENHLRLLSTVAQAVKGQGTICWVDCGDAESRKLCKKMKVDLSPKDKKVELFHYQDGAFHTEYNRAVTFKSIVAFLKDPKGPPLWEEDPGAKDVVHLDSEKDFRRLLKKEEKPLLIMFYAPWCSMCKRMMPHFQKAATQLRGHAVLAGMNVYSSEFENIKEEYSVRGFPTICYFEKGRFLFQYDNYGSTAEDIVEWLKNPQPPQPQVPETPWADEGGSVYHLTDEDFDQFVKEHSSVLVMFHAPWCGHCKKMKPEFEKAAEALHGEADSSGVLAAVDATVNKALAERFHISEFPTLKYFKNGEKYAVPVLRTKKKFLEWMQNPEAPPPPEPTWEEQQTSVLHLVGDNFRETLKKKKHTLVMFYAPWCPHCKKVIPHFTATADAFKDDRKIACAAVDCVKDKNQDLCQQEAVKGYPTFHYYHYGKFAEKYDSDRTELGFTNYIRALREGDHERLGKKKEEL

Molecular target: Flag-mut-PDIA5 (human) (UniProt Q14554)
Test: affinity purification with mass spectrometry; anti-Flag immunoprecipitation from lysate of U251MG cells stably expressing Flag-mut-PDIA5; LC-MS of the precipitate

- binding: binds
B1: cell division cycle and apoptosis regulator protein 1 (CCAR1) (protein, UniProt Q8IX12 1-1150)
chain: MAQFGGQKNPPWATQFTATAVSQPAALGVQQPSLLGASPTIYTQQTALAAAGLTTQTPANYQLTQTAALQQQAAAAAAALQQQYSQPQQALYSVQQQLQQPQQTLLTQPAVALPTSLSLSTPQPTAQITVSYPTPRSSQQQTQPQKQRVFTGVVTKLHDTFGFVDEDVFFQLSAVKGKTPQVGDRVLVEATYNPNMPFKWNAQRIQTLPNQNQSQTQPLLKTPPAVLQPIAPQTTFGVQTQPQPQSLLQAQISAASITPLLQTQPQPLLQQPQQKAGLLQPPVRIVSQPQPARRLDPPSRFSGRNDRGDQVPNRKDDRSRERERERRRSRERSPQRKRSRERSPRRERERSPRRVRRVVPRYTVQFSKFSLDCPSCDMMELRRRYQNLYIPSDFFDAQFTWVDAFPLSRPFQLGNYCNFYVMHREVESLEKNMAILDPPDADHLYSAKVMLMASPSMEDLYHKSCALAEDPQELRDGFQHPARLVKFLVGMKGKDEAMAIGGHWSPSLDGPDPEKDPSVLIKTAIRCCKALTGIDLSVCTQWYRFAEIRYHRPEETHKGRTVPAHVETVVLFFPDVWHCLPTRSEWETLSRGYKQQLVEKLQGERKEADGEQDEEEKDDGEAKEISTPTHWSKLDPKTMKVNDLRKELESRALSSKGLKSQLIARLTKQLKVEEQKEEQKELEKSEKEEDEDDDRKSEDDKEEEERKRQEEIERQRRERRYILPDEPAIIVHPNWAAKSGKFDCSIMSLSVLLDYRLEDNKEHSFEVSLFAELFNEMLQRDFGVRIYKSLLSLPEKEDKKEKDKKSKKDERKDKKEERDDETDEPKPKRRKSGDDKDKKEDRDERKKEDKRKDDSKDDDETEEDNNQDEYDPMEAEEAEDEEDDRDEEEMTKRDDKRDINRYCKERPSKDKEKEKTQMITINRDLLMAFVYFDQSHCGYLLEKDLEEILYTLGLHLSRAQVKKLLNKVVLRESCFYRKLTDTSKDEENHEESESLQEDMLGNRLLLPTPTVKQESKDVEENVGLIVYNGAMVDVGSLLQKLEKSEKVRAEVEQKLQLLEEKTDEDEKTILNLENSNKSLSGELREVKKDLSQLQENLKISENMNLQFENQMNKTIRNLSTVMDEIHTVLKKDNVKNEDKDQKSKENGASV
